Reference: PubChem BioAssay AID1053208 (Peter MacCallum Cancer Centre, 2014)

Screen: 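Synthetic lethal interactions between gene loss and doxorubicin in osteosarcoma cells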 (primary screen)
System: mouse osteosarcoma cells, early-passage culture from an engineered mouse model of fibroblastic bone tumour
Knock-down reagent: siRNA pool against mouse genes, 40 nM
Timing: about 120 h (48 h before drug, then 72 h with drug)
Treatment: doxorubicin 100 nM for 72 h, roughly 30-40% inhibitory dose
Measured: 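Viability read as ATP luminescence after 72 h of 100 nM doxorubicin or none, duplicate wells averaged, scaled to non-targeting siRNA, then expressed as robust z-scores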
Scale: viability z-score with doxorubicin: higher = more viable cells under doxorubicin; viability z-score without drug: higher = more viable cells with knock-down alone
Call rule: 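a pool counts as active when its viability z-score with doxorubicin is -2 or below and its z-score without drug lies between -2 and 2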
The whole screen tested about 17,000 reagents; shown is a part drawn at random. Over the whole deposit, 788 (4.7%) were called active. 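Calls rest on z-score classes alone; an extra cut-off of viability at most 70% of control was not applied to them.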 Entries without a mark were called inactive. Not all columns of the deposit are shown.

Rbm15 (GeneID 229700) [SID152279319] — combined z-score class = no change with or without drug; viability z-score with doxorubicin = 0.22; viability z-score without drug = 0.51
Zfp239 (GeneID 22685) [SID152320816] — combined z-score class = no change with or without drug; viability z-score with doxorubicin = 0.22; viability z-score without drug = 0.17
Or8c11 (GeneID 404313) [SID152269167] — combined z-score class = no change with or without drug; viability z-score with doxorubicin = 0.45; viability z-score without drug = 0.67
Riiad1 (GeneID 66353) [SID152268249] — combined z-score class = no change with or without drug; viability z-score with doxorubicin = -1.12; viability z-score without drug = -0.17
Gys1 (GeneID 14936) [SID152264476] — combined z-score class = no change with or without drug; viability z-score with doxorubicin = 1.35; viability z-score without drug = 0.84
Gys1 (GeneID 14936) [SID152327622] — combined z-score class = no change with or without drug; viability z-score with doxorubicin = 0.9; viability z-score without drug = -0.51
Or2a51 (GeneID 258647) [SID152299508] — combined z-score class = no change with or without drug; viability z-score with doxorubicin = -0.9; viability z-score without drug = -1.18
Tbl2 (GeneID 27368) [SID152327190] — combined z-score class = high cell count with and without drug; viability z-score with doxorubicin = 2.02; viability z-score without drug = 2.19
Bcl2l10 (GeneID 12049) [SID152260690] — combined z-score class = no change with or without drug; viability z-score with doxorubicin = -0.79; viability z-score without drug = -0.51
Dcaf11 (GeneID 28199) [SID152286723] — combined z-score class = no change with or without drug; viability z-score with doxorubicin = 0.22; viability z-score without drug = -0.17
Syngr4 (GeneID 58867) [SID152296959] — combined z-score class = no change with or without drug; viability z-score with doxorubicin = -1.57; viability z-score without drug = 0.34
Fbxw4 (GeneID 30838) [SID152336835] — combined z-score class = no change with or without drug; viability z-score with doxorubicin = 1.12; viability z-score without drug = 0.51
Myh4 (GeneID 17884) [SID152271436] — combined z-score class = no change with or without drug; viability z-score with doxorubicin = 0.67; viability z-score without drug = 0.51
Utp15 (GeneID 105372) [SID152286982] — combined z-score class = no change with or without drug; viability z-score with doxorubicin = 0.79; viability z-score without drug = 0.17
Ahsg (GeneID 11625) [SID152322969] — combined z-score class = no change with or without drug; viability z-score with doxorubicin = 0.56; viability z-score without drug = 0
Cimip2b (GeneID 329831) [SID152326081] — combined z-score class = no change with or without drug; viability z-score with doxorubicin = 0; viability z-score without drug = 0.34
Vmn1r40 (GeneID 113855) [SID152314537] — combined z-score class = no change with or without drug; viability z-score with doxorubicin = 0.45; viability z-score without drug = 0.51
D630029K05Rik (GeneID 103175) [SID152262464] — combined z-score class = no change with or without drug; viability z-score with doxorubicin = 0; viability z-score without drug = 0.17
Acap1 (GeneID 216859) [SID152282362] — combined z-score class = no change with or without drug; viability z-score with doxorubicin = -0.45; viability z-score without drug = -0.34
